Source: patent US20100323905A1
Results are given in words; binding and its absence hold for the method and conditions named. Some results given as binding are weak or reduced against the parent protein; the word gives no strength.

Legend:
Experiment in all cases: Western blot of purified mutant proteins
[1] = molecular target: T1, PABPN1 point mutant E131A (UniProt Q86U42)
T1 sequence (looked up): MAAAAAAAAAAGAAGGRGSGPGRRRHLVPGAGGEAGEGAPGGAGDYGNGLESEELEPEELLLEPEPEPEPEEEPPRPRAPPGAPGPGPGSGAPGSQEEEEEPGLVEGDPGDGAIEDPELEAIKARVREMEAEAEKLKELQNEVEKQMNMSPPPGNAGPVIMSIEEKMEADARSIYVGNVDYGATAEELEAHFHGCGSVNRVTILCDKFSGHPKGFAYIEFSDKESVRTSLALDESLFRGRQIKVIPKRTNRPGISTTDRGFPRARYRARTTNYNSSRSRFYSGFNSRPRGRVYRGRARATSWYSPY

[2] = molecular target: T2, PABPN1 point mutant K135A (UniProt Q86U42)
T2 sequence (looked up): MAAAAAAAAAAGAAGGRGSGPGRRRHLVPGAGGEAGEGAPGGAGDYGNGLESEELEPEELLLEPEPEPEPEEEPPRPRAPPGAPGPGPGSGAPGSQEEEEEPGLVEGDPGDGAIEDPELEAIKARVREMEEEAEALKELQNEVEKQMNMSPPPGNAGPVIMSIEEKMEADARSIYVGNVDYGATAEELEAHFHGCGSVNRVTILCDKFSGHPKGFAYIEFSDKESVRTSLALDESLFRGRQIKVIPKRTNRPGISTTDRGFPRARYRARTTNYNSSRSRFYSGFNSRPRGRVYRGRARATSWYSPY

[3] = molecular target: T3, PABPN1 point mutant L136S (UniProt Q86U42)
T3 sequence (looked up): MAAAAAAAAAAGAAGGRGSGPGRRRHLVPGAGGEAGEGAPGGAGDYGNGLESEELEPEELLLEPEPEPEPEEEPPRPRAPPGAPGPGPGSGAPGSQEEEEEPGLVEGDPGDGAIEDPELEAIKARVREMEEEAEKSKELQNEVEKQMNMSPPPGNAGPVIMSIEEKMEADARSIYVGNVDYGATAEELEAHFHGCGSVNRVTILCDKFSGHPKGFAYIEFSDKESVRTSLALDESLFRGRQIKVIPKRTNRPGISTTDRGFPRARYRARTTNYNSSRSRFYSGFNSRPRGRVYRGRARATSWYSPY

[4] = molecular target: T4, PABPN1 point mutant V143A (UniProt Q86U42)
T4 sequence (looked up): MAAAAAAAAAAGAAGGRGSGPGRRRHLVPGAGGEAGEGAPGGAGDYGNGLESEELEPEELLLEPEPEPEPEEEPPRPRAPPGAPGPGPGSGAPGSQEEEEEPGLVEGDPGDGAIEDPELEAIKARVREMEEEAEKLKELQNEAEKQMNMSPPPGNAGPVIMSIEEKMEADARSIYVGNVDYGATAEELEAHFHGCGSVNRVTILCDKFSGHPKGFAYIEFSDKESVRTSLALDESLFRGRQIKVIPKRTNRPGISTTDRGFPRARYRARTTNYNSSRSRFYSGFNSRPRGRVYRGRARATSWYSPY

Measured: binding

B1: VHH 3F5 (VHH)
VHH: EVQLVESGGGLVQAGGSLRLSCAASGRTFSGYGMGWFRQAPGKEREFVAAISWRGGNTYYADSVKGRFTISRDNAKNTVWLQMNSLKPEDTAVYYCSGFVRTRDDPSRIRNYWGQGTQVTVST
binds: [1] | [2] | [3] | [4]
